Test results: patent US20100285487A1
Results are given in words; binding and its absence hold for the method and conditions named. Some binding calls cover weakened binding; strength is not graded here.

Sequences of proteins named here, by UniProt entry; tags and fusion partners are left off. A change or cut given only in a name is not applied to a line headed by its entry.
UniProt P18887: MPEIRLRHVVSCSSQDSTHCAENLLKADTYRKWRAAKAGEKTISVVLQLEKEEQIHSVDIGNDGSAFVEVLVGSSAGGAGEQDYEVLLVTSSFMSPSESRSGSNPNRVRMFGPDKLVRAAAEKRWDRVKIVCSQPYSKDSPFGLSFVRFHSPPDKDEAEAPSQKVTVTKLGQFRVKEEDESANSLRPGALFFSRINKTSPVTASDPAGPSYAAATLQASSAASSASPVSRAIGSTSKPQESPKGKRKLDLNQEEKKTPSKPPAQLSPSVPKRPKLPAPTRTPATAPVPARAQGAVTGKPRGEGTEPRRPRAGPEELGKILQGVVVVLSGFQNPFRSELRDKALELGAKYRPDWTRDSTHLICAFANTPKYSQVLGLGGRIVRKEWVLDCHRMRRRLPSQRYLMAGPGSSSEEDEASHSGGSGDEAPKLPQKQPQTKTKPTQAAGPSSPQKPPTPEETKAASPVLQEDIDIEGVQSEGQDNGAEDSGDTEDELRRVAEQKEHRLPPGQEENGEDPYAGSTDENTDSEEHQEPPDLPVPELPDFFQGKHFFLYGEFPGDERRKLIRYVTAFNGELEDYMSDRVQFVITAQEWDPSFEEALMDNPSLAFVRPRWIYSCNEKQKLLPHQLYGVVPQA
UniProt P09874: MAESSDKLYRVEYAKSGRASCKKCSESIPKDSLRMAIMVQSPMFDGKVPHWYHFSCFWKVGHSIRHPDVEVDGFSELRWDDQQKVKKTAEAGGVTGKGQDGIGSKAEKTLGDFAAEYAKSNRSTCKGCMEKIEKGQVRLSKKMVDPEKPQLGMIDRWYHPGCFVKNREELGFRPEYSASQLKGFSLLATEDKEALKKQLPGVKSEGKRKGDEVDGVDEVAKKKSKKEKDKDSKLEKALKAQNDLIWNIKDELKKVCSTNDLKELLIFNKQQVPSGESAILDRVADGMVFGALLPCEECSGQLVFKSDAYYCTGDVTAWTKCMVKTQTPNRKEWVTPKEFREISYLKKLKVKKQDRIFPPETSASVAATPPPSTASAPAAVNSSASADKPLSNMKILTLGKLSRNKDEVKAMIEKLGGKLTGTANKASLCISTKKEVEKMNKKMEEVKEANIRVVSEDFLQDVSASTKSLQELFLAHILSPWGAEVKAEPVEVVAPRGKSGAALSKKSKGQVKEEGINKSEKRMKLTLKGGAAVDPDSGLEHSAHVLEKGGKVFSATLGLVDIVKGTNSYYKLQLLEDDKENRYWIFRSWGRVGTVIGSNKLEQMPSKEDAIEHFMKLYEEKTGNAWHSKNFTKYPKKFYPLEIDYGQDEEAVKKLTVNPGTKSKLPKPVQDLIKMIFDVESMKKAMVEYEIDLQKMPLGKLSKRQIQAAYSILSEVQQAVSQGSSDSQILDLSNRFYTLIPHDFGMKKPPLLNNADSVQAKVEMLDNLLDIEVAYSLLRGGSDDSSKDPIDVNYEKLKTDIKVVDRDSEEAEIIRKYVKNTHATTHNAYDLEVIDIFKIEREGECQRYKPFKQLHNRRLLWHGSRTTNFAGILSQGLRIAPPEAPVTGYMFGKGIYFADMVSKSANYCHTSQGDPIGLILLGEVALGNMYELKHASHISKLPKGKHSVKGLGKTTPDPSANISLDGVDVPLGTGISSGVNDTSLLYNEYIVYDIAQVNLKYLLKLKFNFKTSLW
UniProt P12004: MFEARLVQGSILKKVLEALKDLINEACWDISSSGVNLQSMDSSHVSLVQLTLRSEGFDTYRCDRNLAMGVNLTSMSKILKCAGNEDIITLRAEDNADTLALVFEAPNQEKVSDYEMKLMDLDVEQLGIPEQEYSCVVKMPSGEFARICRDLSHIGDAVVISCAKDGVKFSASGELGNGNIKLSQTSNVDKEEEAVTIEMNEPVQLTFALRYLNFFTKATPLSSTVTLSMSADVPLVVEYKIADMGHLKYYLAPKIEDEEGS

Biological target: XRCC1-LacI-RFP (UniProt P18887)
Assay: F2H assay, BHK cells

binding | Substance
binds | GFP-PARP-1 (from UniProt P09874 1-1014)
binds | GFP-PCNA (from UniProt P12004 1-261)
